PMC11747444
Results are given in words; binding and its absence hold for the method and conditions named. In cells and extracts the contact can be indirect. Some binding calls cover weakened binding; strength is not graded here.

Amino acid sequences for entries named in this document (tags omitted). A change or cut given only in a name is not applied to a line headed by its entry.
UniProt P14635: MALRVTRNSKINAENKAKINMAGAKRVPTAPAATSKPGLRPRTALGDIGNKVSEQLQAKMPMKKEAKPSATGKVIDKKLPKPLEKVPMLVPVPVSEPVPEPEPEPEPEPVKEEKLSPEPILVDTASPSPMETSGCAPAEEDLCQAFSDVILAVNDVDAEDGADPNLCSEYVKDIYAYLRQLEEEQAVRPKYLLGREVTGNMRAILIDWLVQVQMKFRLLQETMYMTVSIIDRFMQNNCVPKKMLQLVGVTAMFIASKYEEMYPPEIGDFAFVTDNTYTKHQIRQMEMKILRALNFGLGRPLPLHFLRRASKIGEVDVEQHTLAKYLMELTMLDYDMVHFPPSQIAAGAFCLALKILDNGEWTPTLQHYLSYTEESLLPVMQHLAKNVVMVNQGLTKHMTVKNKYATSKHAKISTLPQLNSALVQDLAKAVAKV

Legend:
[1] = target: mNeonGreen (mNG)-tagged phosphate-binding pocket mutant cyclin B1 (R307E, H320F, K324E) (human) (UniProt P14635); test: co-IP; mNeonGreen-trap magnetic agarose beads on lysates (NETN buffer) of doxycycline-induced HeLa mNG-cyclin B1^wt/mut cells enriched in mitosis (nocodazole; for Mad1 and APC3 cells depleted of cyclin B1 and B2); immunoblot
[2] = target: mNeonGreen (mNG)-tagged wild-type cyclin B1 (human) (UniProt P14635); test: as above

B1: endogenous Mad1 (protein, UniProt Q9Y6D9 1-718)
chain: MEDLGENTMVLSTLRSLNNFISQRVEGGSGLDISTSAPGSLQMQYQQSMQLEERAEQIRSKSHLIQVEREKMQMELSHKRARVELERAASTSARNYEREVDRNQELLTRIRQLQEREAGAEEKMQEQLERNRQCQQNLDAASKRLREKEDSLAQAGETINALKGRISELQWSVMDQEMRVKRLESEKQELQEQLDLQHKKCQEANQKIQELQASQEARADHEQQIKDLEQKLSLQEQDAAIVKNMKSELVRLPRLERELKQLREESAHLREMRETNGLLQEELEGLQRKLGRQEKMQETLVGLELENERLLAKLQSWERLDQTMGLSIRTPEDLSRFVVELQQRELALKDKNSAVTSSARGLEKARQQLQEELRQVSGQLLEERKKRETHEALARRLQKRVLLLTKERDGMRAILGSYDSELTPAEYSPQLTRRMREAEDMVQKVHSHSAEMEAQLSQALEELGGQKQRADMLEMELKMLKSQSSSAEQSFLFSREEADTLRLKVEELEGERSRLEEEKRMLEAQLERRALQGDYDQSRTKVLHMSLNPTSVARQRLREDHSQLQAECERLRGLLRAMERGGTVPADLEAAAASLPSSKEVAELKKQVESAELKNQRLKEVFQTKIQEFRKACYTLTGYQIDITTENQYRLTSLYAEHPGDCLIFKATSPSGSKMQLLETEFSHTVGELIEVHLRRQDSIPAFLSSLTLELFSRQTVA
binding [1]: binds | binding [2]: binds
